One substance from patent publication US20190359666A1 can be followed below.

The chains behind the UniProt entries cited, without tags or fusion partners. Residues count along the entry.
UniProt P17936, residues 28-291: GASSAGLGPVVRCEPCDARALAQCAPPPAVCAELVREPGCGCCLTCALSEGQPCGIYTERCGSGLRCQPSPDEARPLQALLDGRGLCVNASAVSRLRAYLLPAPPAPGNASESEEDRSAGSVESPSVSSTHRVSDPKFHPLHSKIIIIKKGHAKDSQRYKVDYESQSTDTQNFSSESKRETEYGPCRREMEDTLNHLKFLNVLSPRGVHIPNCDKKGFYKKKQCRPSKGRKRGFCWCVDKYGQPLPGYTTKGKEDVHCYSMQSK

These are yes or no findings as the source states them, for the method shown. Some entries that bind do so weakly or less than the wild type.

For this assay, the target named is T1, nrgbx (UniProt Q02297).
T1 sequence (looked up): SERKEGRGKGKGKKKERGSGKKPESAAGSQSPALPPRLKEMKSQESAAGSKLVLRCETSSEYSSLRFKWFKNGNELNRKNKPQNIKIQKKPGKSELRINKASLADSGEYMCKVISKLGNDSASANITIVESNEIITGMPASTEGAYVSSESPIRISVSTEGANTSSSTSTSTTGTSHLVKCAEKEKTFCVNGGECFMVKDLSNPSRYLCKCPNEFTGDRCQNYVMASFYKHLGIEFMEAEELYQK
In words: summary of the foregoing examples; method not given.

Turning to “wild-type IGFBP3 (from UniProt P17936 28-291)”, the binding entry is recorded as “binds”.
